Data on two substances can be found in US20200129532A1.

Protein sequences, listed by entry. Tags and fused reporters are not part of them. Lines headed by an entry give the natural chain unless they say otherwise; changes in a name come on top.
UniProt Q9H8M2: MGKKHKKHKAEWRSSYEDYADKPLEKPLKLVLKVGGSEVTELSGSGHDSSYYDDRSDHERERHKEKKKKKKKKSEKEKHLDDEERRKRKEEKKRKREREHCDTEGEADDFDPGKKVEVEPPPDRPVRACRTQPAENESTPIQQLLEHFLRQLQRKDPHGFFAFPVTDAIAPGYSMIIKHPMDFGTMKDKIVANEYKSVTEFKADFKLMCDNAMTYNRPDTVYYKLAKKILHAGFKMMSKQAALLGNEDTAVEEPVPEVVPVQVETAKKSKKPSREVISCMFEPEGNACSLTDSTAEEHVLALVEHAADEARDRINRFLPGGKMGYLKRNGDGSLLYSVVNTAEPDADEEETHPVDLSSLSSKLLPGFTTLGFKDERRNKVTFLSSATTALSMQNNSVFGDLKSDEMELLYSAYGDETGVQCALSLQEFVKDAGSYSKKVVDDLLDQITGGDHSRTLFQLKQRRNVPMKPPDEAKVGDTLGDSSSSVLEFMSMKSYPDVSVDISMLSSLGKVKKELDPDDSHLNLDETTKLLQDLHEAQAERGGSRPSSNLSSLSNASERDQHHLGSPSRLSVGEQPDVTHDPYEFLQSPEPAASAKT

Assay [1] concerns the target T1, HA-tagged VDR (vitamin D receptor), wild type (human) (UniProt P11473).
T1 sequence (acetylated lysine at 91 (K91Ac), looked up): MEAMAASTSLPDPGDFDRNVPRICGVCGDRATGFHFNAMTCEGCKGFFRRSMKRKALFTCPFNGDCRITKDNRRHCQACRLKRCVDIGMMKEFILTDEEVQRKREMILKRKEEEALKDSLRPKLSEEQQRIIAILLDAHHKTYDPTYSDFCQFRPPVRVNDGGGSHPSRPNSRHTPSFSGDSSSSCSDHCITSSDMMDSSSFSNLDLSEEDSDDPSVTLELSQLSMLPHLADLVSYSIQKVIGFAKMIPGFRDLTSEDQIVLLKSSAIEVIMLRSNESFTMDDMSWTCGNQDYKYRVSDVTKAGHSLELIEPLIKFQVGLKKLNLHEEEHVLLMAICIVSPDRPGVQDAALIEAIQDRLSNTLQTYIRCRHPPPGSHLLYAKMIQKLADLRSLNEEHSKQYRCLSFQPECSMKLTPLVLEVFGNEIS
Kind of assay: co-immunoprecipitation, Western blot and MudPIT (title of FIGS. 4A-4L). Background: A western blot detects proteins with antibodies after separation by electrophoresis.

Assay [2] addresses T1, HA-tagged VDR (vitamin D receptor), wild type (human). Kind of assay: co-immunoprecipitation from 293T cells, Western blot; interaction decreased with VDR ligand (Cal) and with iBRD9.
Assay [3] deals with T2, purified recombinant His-tagged VDR (full-length, SF9 insect cell produced) (human) (UniProt P11473).
T2 sequence (acetylated (FIG. 5F); acetylated lysine at 91 (FIG. 5G), looked up): T1 sequence (acetylated lysine at 91 (K91Ac), looked up)
Kind of assay: in vitro interaction of purified proteins (FIG. 4D).

Assay [4] has as its target T2, purified recombinant His-tagged VDR (full-length, SF9 insect cell produced) (human). The assay is described as follows: in vitro interaction of purified proteins (FIGS. 4D, 5F).

These are yes or no findings as the source states them, for the method shown. For some of these results: In cells and extracts the contact can be indirect. Some results given as binding are weak or reduced against the parent protein; the word gives no strength. Where a sequence is shown, tags or fusion partners need not be part of it.

Take “endogenous bromodomain-containing protein 9 (BRD9) (from UniProt Q9H8M2 1-597)”: the binding entry in assay [1] and in assay [2] was “binds” each time.

With “GST-tagged bromodomain of BRD9 (from UniProt Q9H8M2 134-239)”, the binding result in assay [3] and in assay [4] was “binds” throughout.
